Data on 2 molecules can be found in paper doi:10.1101/2020.08.29.273516.

The chains behind the UniProt entries cited, without tags or fusion partners. Residues count along the entry.
UniProt Q9QUK6, residues 26-835: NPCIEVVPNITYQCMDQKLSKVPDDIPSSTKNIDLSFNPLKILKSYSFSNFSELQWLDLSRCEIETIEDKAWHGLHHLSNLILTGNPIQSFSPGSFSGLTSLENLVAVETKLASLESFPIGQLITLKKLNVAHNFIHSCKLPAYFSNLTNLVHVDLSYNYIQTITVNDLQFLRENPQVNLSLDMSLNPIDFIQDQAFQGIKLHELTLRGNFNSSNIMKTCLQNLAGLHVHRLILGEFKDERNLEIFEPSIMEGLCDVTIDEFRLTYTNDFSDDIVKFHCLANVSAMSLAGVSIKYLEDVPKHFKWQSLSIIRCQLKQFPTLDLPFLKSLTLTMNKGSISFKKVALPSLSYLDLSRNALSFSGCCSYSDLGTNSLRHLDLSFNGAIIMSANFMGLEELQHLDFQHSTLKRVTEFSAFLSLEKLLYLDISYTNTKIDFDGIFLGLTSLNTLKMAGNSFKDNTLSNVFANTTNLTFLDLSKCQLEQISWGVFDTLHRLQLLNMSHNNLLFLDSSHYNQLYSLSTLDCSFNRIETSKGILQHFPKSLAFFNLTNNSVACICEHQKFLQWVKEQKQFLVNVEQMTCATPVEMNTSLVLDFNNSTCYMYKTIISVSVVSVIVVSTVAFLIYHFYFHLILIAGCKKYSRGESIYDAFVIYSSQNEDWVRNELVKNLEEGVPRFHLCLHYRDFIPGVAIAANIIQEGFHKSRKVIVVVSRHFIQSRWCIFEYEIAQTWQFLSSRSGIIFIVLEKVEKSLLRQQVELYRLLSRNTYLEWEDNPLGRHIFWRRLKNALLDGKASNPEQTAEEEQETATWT
UniProt O00206, residues 676-835: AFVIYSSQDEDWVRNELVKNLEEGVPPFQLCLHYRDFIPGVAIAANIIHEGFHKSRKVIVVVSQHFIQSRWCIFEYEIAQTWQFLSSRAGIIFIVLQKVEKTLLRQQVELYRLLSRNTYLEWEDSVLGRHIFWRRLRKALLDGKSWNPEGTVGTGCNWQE
UniProt Q5SNZ0: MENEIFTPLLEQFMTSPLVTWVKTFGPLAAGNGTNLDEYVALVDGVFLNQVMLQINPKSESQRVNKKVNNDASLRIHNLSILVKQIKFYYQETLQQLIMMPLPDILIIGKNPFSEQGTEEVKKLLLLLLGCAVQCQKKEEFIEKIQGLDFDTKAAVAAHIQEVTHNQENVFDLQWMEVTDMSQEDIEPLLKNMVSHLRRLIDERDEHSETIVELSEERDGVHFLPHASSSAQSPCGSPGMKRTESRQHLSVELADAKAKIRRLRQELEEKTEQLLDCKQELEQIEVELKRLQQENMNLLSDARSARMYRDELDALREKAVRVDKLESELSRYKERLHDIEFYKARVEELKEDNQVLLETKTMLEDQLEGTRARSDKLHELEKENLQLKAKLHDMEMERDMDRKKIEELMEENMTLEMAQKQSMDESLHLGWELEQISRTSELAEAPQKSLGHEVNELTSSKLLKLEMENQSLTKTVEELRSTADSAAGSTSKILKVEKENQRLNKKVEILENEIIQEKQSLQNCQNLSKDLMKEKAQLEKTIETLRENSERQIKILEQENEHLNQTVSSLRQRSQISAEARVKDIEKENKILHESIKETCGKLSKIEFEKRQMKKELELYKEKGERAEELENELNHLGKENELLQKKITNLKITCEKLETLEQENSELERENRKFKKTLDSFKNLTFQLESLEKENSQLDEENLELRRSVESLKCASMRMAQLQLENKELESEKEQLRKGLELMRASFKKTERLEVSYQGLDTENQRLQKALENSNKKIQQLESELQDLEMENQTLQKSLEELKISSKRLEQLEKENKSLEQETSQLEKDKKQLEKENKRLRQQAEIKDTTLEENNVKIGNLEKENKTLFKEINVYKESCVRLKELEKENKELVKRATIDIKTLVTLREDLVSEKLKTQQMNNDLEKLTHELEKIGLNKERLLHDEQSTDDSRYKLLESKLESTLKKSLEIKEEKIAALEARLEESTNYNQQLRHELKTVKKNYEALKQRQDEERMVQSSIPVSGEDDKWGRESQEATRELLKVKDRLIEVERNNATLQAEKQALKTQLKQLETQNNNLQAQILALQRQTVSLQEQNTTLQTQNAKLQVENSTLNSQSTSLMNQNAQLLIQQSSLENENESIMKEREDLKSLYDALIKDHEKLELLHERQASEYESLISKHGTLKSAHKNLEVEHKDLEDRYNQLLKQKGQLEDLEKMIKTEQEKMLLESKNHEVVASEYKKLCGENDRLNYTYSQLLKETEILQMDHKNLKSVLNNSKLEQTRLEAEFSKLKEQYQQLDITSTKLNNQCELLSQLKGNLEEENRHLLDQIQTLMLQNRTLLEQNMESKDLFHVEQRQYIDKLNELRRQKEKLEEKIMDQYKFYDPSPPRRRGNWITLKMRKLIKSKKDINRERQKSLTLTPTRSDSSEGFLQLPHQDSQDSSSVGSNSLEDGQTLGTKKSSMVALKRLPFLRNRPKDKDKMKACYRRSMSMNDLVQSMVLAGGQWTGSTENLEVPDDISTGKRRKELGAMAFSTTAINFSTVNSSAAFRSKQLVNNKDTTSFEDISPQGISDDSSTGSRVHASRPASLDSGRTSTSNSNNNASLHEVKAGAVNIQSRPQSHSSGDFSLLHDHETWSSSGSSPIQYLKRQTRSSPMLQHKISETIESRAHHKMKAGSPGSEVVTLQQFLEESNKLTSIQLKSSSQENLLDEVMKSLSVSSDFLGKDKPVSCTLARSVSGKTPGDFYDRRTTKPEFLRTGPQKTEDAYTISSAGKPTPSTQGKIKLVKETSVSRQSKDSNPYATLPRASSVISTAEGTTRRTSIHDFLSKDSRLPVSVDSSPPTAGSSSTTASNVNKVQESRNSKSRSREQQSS

Read-outs that look alike come from different tables or passages of the source. These are yes or no findings as the source states them, for the method shown. For some of these results: Binding seen in cells or lysates may run through a third protein. Some results given as binding are weak or reduced against the parent protein; the word gives no strength. For some of these results: Where a sequence is shown, tags or fusion partners need not be part of it.

Test [1] concerns the target TLR4, endogenous full length, RAW 264.7 macrophages (mouse (endogenous in RAW 264.7)) (UniProt Q9QUK6). Briefly: co-IP.
The target is the same in test [2]. Briefly: co-IP. The source holds these as a separate data set.
Test [3] deals with GST-TLR4-TIR (GST-tagged cytoplasmic Toll/interleukin-1 receptor module of TLR4, aa 676-835) (UniProt O00206). Put plainly: pull-down.
Test [4] addresses TLR4, endogenous full length, RAW 264.7 macrophages (mouse (endogenous in RAW 264.7)) (UniProt Q9QUK6). Put plainly: co-IP. The source holds these as a separate data set.

Regarding “GIV (Girdin), endogenous full length, RAW 264.7 macrophages (from UniProt Q5SNZ0 1-1873)”, the binding result in test [1] and in test [2] was “binds” throughout.

With RQIKIWFQNRRMKWKKKPEFLRPGPRKT [GIV-TILL peptide (cell-penetrable: Antennapedia peptide fused to the TILL motif of GIV)], the binding result in test [3] and in test [4] was “binds” in each case.
